Taken from: PubChem BioAssay AID1159584 (Peter MacCallum Cancer Centre, 2016)
In all, the deposit lists about 18,000 reagents; this is an unselected part. Not all columns of the deposit are shown. No sequences are given here. Not stated in the record: the amount of reagent, the time to read-out.

Aim: 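Genes whose loss is lethal only together with E-cadherin loss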 (primary screen)
Cells: human MCF10A breast epithelial cells, parental and CDH1-null
Knock-down reagent: siRNA against human genes
Detection: 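ATP luminescence (CellTiter-Glo) viability per line relative to mean mock wells over all plates, and the ratio of CDH1-null to parental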
Scale: CDH1-null / parental viability ratio: higher = CDH1-null cells survive relatively better than parental

After knock-down of BCL6B (BCL6B transcription repressor) the results were CDH1-null / parental viability ratio 1.19.
With knock-down of CD226 (CD226 molecule), the screen gave CDH1-null / parental viability ratio 0.62.
Silencing of KCND3 (potassium voltage-gated channel subfamily D member 3) came out at: CDH1-null / parental viability ratio 1.05.
Silencing of NOP56 (NOP56 ribonucleoprotein) gave: CDH1-null / parental viability ratio 1.27.
With knock-down of CCL13 (C-C motif chemokine ligand 13), the screen gave CDH1-null / parental viability ratio 1.14.
C18orf54 (chromosome 18 open reading frame 54) scored CDH1-null / parental viability ratio 0.85.
BPGM (bisphosphoglycerate mutase) gave CDH1-null / parental viability ratio 1.18.
With knock-down of PPFIA3 (PPFI scaffold protein A3) the results were CDH1-null / parental viability ratio 1.47.
METTL23 (methyltransferase 23, arginine) gave CDH1-null / parental viability ratio 1.25.
For LURAP1L (leucine rich adaptor protein 1 like), the entry reads CDH1-null / parental viability ratio 0.9.
ESYT3 (extended synaptotagmin 3) gave CDH1-null / parental viability ratio 1.08.
With knock-down of BCL2 (BCL2 apoptosis regulator), the record shows CDH1-null / parental viability ratio 0.89.
IFNLR1 (interferon lambda receptor 1) scored CDH1-null / parental viability ratio 0.9.

A portion taken from the entries so far, for reference:
KCND3 (potassium voltage-gated channel subfamily D member 3): CDH1-null / parental viability ratio = 1.05
NOP56 (NOP56 ribonucleoprotein): CDH1-null / parental viability ratio = 1.27

The list goes on.
Against MEF2C (myocyte enhancer factor 2C), the values are CDH1-null / parental viability ratio 0.98.
Knock-down of TP53TG3 (TP53 target 3) gave: CDH1-null / parental viability ratio 1.06.
For CMC2 (C-X9-C motif containing 2) the deposit lists CDH1-null / parental viability ratio 0.85.
For FGF22 (fibroblast growth factor 22) the deposit lists CDH1-null / parental viability ratio 1.27.
Silencing of H3C12 (H3 clustered histone 12) resulted in: CDH1-null / parental viability ratio 0.74.
For PPM1K (protein phosphatase, Mg2+/Mn2+ dependent 1K), the entry reads CDH1-null / parental viability ratio 1.31.
PPP1CA (protein phosphatase 1 catalytic subunit alpha) showed CDH1-null / parental viability ratio 1.43.
With knock-down of ZBTB48 (zinc finger and BTB domain containing 48), the screen gave CDH1-null / parental viability ratio 1.09.
With knock-down of NUTM2G (NUT family member 2G) the results were CDH1-null / parental viability ratio 0.79.
With knock-down of ZNRD2 (zinc ribbon domain containing 2) the results were CDH1-null / parental viability ratio 0.75.
Against LTK (leukocyte receptor tyrosine kinase), the values are CDH1-null / parental viability ratio 0.75.
Depletion of KCTD5 (potassium channel tetramerization domain containing 5) gave: CDH1-null / parental viability ratio 1.1.
For NPNT (nephronectin), the entry reads CDH1-null / parental viability ratio 1.12.
DUS1L (dihydrouridine synthase 1 like) showed CDH1-null / parental viability ratio 1.15.
DEXI (Dexi homolog) gave CDH1-null / parental viability ratio 1.18.
After knock-down of RNASE12 (ribonuclease A family member 12 (inactive)), the record shows CDH1-null / parental viability ratio 0.73.
With knock-down of ERCC5 (ERCC excision repair 5, endonuclease), the screen gave CDH1-null / parental viability ratio 1.1.
After knock-down of LARP7 (La ribonucleoprotein 7, transcriptional regulator), the record shows CDH1-null / parental viability ratio 1.23.
For HCG9 (HLA complex group 9), the values are CDH1-null / parental viability ratio 0.91.
TREM1 (triggering receptor expressed on myeloid cells 1) scored CDH1-null / parental viability ratio 0.87.
EBI3 (Epstein-Barr virus induced 3) gave CDH1-null / parental viability ratio 0.56.
After knock-down of RPL41 (ribosomal protein L41) the results were CDH1-null / parental viability ratio 1.16.
